Patent US20210322524A1
No constants are given. Whether binding was seen depends on the method and setting. Some results given as binding are weak or reduced against the parent protein; the word gives no strength.

Protein sequences, listed by entry. Tags and fused reporters are not part of them. Lines headed by an entry give the natural chain unless they say otherwise; changes in a name come on top. Chains listed by the source or under a name are the forms on record and can include a tag or linker. Residues count along the entry.
UniProt Q8BGV8: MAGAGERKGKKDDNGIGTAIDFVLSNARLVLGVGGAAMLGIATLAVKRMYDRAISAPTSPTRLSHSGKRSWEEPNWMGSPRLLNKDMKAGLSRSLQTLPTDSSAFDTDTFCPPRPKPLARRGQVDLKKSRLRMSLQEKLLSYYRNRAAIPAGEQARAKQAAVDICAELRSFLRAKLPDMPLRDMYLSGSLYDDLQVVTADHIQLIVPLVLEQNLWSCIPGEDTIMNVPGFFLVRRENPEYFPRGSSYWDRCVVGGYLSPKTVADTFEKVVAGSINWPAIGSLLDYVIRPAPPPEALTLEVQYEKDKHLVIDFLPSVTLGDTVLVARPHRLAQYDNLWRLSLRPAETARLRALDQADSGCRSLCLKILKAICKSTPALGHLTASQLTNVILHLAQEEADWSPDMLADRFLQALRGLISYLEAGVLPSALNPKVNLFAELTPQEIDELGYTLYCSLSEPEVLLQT
UniProt Q925I1, residues 2-591: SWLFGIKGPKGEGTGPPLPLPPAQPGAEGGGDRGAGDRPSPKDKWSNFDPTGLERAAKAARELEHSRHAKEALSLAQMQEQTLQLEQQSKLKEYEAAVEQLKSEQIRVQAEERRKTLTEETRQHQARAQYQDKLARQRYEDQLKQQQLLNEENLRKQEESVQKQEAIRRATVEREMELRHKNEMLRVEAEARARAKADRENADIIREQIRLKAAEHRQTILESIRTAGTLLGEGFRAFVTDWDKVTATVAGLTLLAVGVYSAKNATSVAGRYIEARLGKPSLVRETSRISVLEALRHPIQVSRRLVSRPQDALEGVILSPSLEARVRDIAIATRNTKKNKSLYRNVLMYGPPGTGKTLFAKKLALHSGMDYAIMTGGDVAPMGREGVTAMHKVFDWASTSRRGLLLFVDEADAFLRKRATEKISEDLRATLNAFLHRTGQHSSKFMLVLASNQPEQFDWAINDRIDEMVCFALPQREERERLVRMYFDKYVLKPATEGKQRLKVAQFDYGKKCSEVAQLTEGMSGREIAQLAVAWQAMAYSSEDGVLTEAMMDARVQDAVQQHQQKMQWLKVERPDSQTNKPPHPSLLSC
UniProt Q9NVI7: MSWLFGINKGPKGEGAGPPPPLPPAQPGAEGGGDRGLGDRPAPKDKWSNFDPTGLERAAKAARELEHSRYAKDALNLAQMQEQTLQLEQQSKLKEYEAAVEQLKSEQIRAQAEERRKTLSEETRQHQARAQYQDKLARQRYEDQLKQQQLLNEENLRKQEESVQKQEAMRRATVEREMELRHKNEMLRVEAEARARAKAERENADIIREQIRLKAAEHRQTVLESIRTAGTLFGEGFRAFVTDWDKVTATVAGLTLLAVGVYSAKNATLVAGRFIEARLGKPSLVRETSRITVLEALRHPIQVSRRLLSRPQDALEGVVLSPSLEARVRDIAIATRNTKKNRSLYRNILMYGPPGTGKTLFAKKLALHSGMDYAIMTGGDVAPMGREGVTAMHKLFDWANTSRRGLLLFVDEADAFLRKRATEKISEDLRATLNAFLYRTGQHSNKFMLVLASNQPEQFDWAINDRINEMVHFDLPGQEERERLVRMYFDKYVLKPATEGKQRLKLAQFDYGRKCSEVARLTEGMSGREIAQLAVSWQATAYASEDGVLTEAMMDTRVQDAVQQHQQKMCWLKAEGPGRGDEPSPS
UniProt Q8K1M6: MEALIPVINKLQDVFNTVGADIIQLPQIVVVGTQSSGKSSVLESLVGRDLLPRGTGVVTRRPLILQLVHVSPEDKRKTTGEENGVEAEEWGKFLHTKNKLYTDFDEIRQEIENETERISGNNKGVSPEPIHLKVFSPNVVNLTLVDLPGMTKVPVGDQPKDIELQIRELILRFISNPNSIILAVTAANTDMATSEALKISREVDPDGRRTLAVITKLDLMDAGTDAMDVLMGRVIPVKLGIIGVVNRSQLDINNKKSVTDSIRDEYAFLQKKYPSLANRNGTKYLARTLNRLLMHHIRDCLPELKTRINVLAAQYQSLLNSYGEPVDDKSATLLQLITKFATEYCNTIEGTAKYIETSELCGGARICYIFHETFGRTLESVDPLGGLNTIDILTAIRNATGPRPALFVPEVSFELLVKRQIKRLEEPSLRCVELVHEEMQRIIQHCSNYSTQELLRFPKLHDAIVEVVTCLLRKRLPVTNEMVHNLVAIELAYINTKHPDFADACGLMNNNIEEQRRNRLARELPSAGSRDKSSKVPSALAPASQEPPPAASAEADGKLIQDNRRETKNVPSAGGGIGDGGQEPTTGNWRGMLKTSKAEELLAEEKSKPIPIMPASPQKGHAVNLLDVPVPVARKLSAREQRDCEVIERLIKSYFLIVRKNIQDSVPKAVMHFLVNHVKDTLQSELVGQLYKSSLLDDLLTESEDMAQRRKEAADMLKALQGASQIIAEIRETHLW
GST-Drp1 recombinant protein (O00429, form named): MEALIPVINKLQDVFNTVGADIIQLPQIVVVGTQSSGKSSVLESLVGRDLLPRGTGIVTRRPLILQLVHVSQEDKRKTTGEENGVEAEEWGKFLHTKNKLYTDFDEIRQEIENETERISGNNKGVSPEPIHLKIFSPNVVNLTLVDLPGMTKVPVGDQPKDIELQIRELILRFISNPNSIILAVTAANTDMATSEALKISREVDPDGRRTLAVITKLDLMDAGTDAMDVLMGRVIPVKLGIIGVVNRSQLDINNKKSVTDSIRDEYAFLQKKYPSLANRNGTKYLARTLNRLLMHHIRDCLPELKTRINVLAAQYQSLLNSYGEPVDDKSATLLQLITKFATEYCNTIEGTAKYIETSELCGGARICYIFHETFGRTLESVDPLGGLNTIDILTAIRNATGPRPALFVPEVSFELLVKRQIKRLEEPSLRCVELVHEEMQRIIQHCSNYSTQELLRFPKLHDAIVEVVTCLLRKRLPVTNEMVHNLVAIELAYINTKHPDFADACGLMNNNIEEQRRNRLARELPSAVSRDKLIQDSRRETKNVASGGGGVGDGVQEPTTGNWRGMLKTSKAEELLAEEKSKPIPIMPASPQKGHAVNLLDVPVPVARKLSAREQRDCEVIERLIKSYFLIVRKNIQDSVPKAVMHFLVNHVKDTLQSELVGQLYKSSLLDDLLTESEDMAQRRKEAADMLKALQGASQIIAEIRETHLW

How the values were obtained:
[1] = biological target: MIEF1 (endogenous, HdhQ111 cells) (mouse) (UniProt Q8BGV8); experiment: IP after DSP crosslinking
[2] = biological target: T1, Mff (endogenous, HdhQ111 cells) (mouse) (UniProt Q6PCP5); experiment: IP after DSP crosslinking
T1 sequence (looked up): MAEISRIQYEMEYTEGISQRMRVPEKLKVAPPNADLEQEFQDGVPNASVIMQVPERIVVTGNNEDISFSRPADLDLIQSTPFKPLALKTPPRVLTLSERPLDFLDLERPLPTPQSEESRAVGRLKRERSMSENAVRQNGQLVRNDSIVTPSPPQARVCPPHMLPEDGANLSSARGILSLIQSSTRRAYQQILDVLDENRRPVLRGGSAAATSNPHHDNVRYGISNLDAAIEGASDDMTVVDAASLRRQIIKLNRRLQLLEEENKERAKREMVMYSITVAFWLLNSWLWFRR

[3] = biological target: T2, Fis1 (endogenous, HdhQ111 cells) (mouse) (UniProt Q9CQ92); experiment: IP after 1% FA crosslinking
T2 sequence (looked up): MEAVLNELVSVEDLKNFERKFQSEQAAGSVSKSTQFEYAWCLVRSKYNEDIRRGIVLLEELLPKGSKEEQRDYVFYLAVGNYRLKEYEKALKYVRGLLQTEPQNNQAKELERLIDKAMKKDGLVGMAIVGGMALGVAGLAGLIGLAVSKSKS

[4] = biological target: ATAD3A (endogenous, mouse cells and mouse striatum) (mouse) (UniProt Q925I1); experiment: immunoprecipitation of total lysates
[5] = biological target: ATAD3A (endogenous, mouse cells and mouse striatum) (mouse) (UniProt Q925I1); experiment: immunoprecipitation, wildtype mouse striatal cells exposed to 3-NP
[6] = biological target: ATAD3A-Flag protein (human ATAD3A wildtype, Flag-tagged) (human) (UniProt Q9NVI7); experiment: summary of the in vitro binding and IP data
[7] = biological target: ATAD3A-Flag protein (human ATAD3A wildtype, Flag-tagged) (human) (UniProt Q9NVI7); experiment: in vitro binding of purified proteins (2 µg each), anti-Flag IP and GST pull-down

Measured: binding

Drp1 (endogenous, mouse striatal cells and mouse striatum) (from UniProt Q8K1M6 1-736) (enzyme)
not listed: [6] | [7]
binds: all other assays above

GST-Drp1 recombinant protein (from UniProt O00429 1-710)
binds: [6] | [7]
